Data taken from the supplement of paper PMC8728848.
The other results are listed elsewhere or left out.

Assays:
Assay in all cases: glycan array binding signal (z-score within array); higher = stronger binding
Conditions in all cases: glycan notation: IUPAC condensed, linker removed
[1] = target: Fuc(a1-2)Gal6S(b1-3)GlcNAc6S
In short: (§1)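 Glycan array data came from 3228 arrays in the Consortium for Functional Glycomics database, and only arrays with an available protein sequence were kept. Glycan names were put into IUPAC-condensed notation, and columns mapping to the same glycan were averaged. The binding signal is a within-array Z-score, averaged across arrays of one protein sequence run at different concentrations or buffers and across linkers. A negative Z-score can be read as non-binding.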

[2] = target: Fuc(a1-2)Gal6S(b1-4)Glc
In short: as §1

[3] = target: Fuc(a1-2)Gal6S(b1-4)Glc6S
In short: as §1

[4] = target: Fuc(a1-2)[Gal(a1-3)]Gal
In short: as §1

[5] = target: Fuc(a1-2)[Gal(a1-3)]Gal(b1-3)GalNAc
In short: as §1

[6] = target: Fuc(a1-2)[Gal(a1-3)]Gal(b1-3)GalNAc(b1-3)Gal(a1-4)Gal(b1-4)Glc
In short: as §1

[7] = target: Fuc(a1-2)[Gal(a1-3)]Gal(b1-3)GlcNAc
In short: as §1

[8] = target: Fuc(a1-2)[Gal(a1-3)]Gal(b1-3)GlcNAc(b1-2)Man(a1-3)[Fuc(a1-2)[Gal(a1-3)]Gal(b1-3)GlcNAc(b1-2)Man(a1-6)]Man(b1-4)GlcNAc(b1-4)GlcNAc
In short: as §1

[9] = target: Fuc(a1-2)[Gal(a1-3)]Gal(b1-3)GlcNAc(b1-2)Man(a1-3)[Fuc(a1-2)[Gal(a1-3)]Gal(b1-3)GlcNAc(b1-2)Man(a1-6)]Man(b1-4)GlcNAc(b1-4)[Fuc(a1-6)]GlcNAc
In short: as §1

[10] = target: Fuc(a1-2)[Gal(a1-3)]Gal(b1-3)GlcNAc(b1-3)GalNAc
In short: as §1

[11] = target: Fuc(a1-2)[Gal(a1-3)]Gal(b1-3)GlcNAc(b1-6)GalNAc
In short: as §1

[12] = target: Fuc(a1-2)[Gal(a1-3)]Gal(b1-4)Glc
In short: as §1

[13] = target: Fuc(a1-2)[Gal(a1-3)]Gal(b1-4)GlcNAc
In short: as §1

[14] = target: Fuc(a1-2)[Gal(a1-3)]Gal(b1-4)GlcNAc(b1-2)Man
In short: as §1

[15] = target: Fuc(a1-2)[Gal(a1-3)]Gal(b1-4)GlcNAc(b1-2)Man(a1-3)[Fuc(a1-2)[Gal(a1-3)]Gal(b1-4)GlcNAc(b1-2)Man(a1-6)]Man(b1-4)GlcNAc(b1-4)GlcNAc
In short: as §1

[16] = target: Fuc(a1-2)[Gal(a1-3)]Gal(b1-4)GlcNAc(b1-2)Man(a1-3)[Fuc(a1-2)[Gal(a1-3)]Gal(b1-4)GlcNAc(b1-2)Man(a1-6)]Man(b1-4)GlcNAc(b1-4)[Fuc(a1-6)]GlcNAc
In short: as §1

[17] = target: Fuc(a1-2)[Gal(a1-3)]Gal(b1-4)GlcNAc(b1-3)GalNAc
In short: as §1

[18] = target: Fuc(a1-2)[Gal(a1-3)]Gal(b1-4)GlcNAc(b1-6)GalNAc
In short: as §1

[19] = target: Fuc(a1-2)[Gal(a1-3)]Gal(b1-4)[Fuc(a1-3)]Glc
In short: as §1

[20] = target: Fuc(a1-2)[Gal(a1-3)]Gal(b1-4)[Fuc(a1-3)]GlcNAc
In short: as §1

[21] = target: Fuc(a1-2)[Gal(a1-3)]Gal(b1-4)[Fuc(a1-3)]GlcNAc(b1-3)GalNAc
In short: as §1

[22] = target: Fuc(a1-2)[Gal(a1-4)]Gal(b1-4)GlcNAc
In short: as §1

[23] = target: Fuc(a1-2)[GalNAc(a1-3)]Gal
In short: as §1

[24] = target: Fuc(a1-2)[GalNAc(a1-3)]Gal(b1-3)GalNAc(a1-3)[Fuc(a1-2)]Gal(b1-4)GlcNAc
In short: as §1

[25] = target: Fuc(a1-2)[GalNAc(a1-3)]Gal(b1-3)GalNAc(b1-3)Gal(a1-4)Gal(b1-4)Glc
In short: as §1

[26] = target: Fuc(a1-2)[GalNAc(a1-3)]Gal(b1-3)GlcNAc
In short: as §1

[27] = target: Fuc(a1-2)[GalNAc(a1-3)]Gal(b1-3)GlcNAc(b1-2)Man(a1-3)[Fuc(a1-2)[GalNAc(a1-3)]Gal(b1-3)GlcNAc(b1-2)Man(a1-6)]Man(b1-4)GlcNAc(b1-4)GlcNAc
In short: as §1

[28] = target: Fuc(a1-2)[GalNAc(a1-3)]Gal(b1-3)GlcNAc(b1-2)Man(a1-3)[Fuc(a1-2)[GalNAc(a1-3)]Gal(b1-3)GlcNAc(b1-2)Man(a1-6)]Man(b1-4)GlcNAc(b1-4)[Fuc(a1-6)]GlcNAc
In short: as §1

[29] = target: Fuc(a1-2)[GalNAc(a1-3)]Gal(b1-3)GlcNAc(b1-3)GalNAc
In short: as §1

[30] = target: Fuc(a1-2)[GalNAc(a1-3)]Gal(b1-3)GlcNAc(b1-6)GalNAc
In short: as §1

[31] = target: Fuc(a1-2)[GalNAc(a1-3)]Gal(b1-4)Glc
In short: as §1

[32] = target: Fuc(a1-2)[GalNAc(a1-3)]Gal(b1-4)GlcNAc
In short: as §1

[33] = target: Fuc(a1-2)[GalNAc(a1-3)]Gal(b1-4)GlcNAc(b1-2)Man
In short: as §1

[34] = target: Fuc(a1-2)[GalNAc(a1-3)]Gal(b1-4)GlcNAc(b1-2)Man(a1-3)[Fuc(a1-2)[GalNAc(a1-3)]Gal(b1-4)GlcNAc(b1-2)Man(a1-6)]Man(b1-4)GlcNAc(b1-4)GlcNAc
In short: as §1

[35] = target: Fuc(a1-2)[GalNAc(a1-3)]Gal(b1-4)GlcNAc(b1-2)Man(a1-3)[Fuc(a1-2)[GalNAc(a1-3)]Gal(b1-4)GlcNAc(b1-2)Man(a1-6)]Man(b1-4)GlcNAc(b1-4)[Fuc(a1-6)]GlcNAc
In short: as §1

[36] = target: Fuc(a1-2)[GalNAc(a1-3)]Gal(b1-4)GlcNAc(b1-3)Gal(b1-4)GlcNAc
In short: as §1

[37] = target: Fuc(a1-2)[GalNAc(a1-3)]Gal(b1-4)GlcNAc(b1-3)Gal(b1-4)GlcNAc(b1-3)Gal(b1-4)GlcNAc
In short: as §1

[38] = target: Fuc(a1-2)[GalNAc(a1-3)]Gal(b1-4)GlcNAc(b1-3)GalNAc
In short: as §1

[39] = target: Fuc(a1-2)[GalNAc(a1-3)]Gal(b1-4)GlcNAc(b1-3)[Fuc(a1-2)[GalNAc(a1-3)]Gal(b1-4)GlcNAc(b1-6)]GalNAc
In short: as §1

[40] = target: Fuc(a1-2)[GalNAc(a1-3)]Gal(b1-4)GlcNAc(b1-6)GalNAc
In short: as §1

[41] = target: Fuc(a1-2)[GalNAc(a1-3)]Gal(b1-4)[Fuc(a1-3)]GlcNAc
In short: as §1

[42] = target: Fuc(a1-2)[GalNAc(a1-3)]Gal(b1-4)[Fuc(a1-3)]GlcNAc(b1-3)GalNAc
In short: as §1

[43] = target: Fuc(a1-2)[GalNAc(a1-4)]Gal(b1-4)GlcNAc
In short: as §1

[44] = target: Fuc(a1-2)[GalNAc(b1-3)]Gal
In short: as §1

[45] = target: Fuc(a1-3)GlcNAc
In short: as §1

B1: Blon2355mut (Bifidobacterium longum) (protein)
chain: MVQEPTLEWHVIPEPTNVEPLVGTCSLPLSGTVVEQRGADDAEAVFARQLVDDIKRVCGGRWQVASGEVQREVTLRTSPSLDDWSYVLEVSPDGVVITGSGFEGVRDGVQTLRQIIRQIGLTIPCMVIRDRPAFSTRGYYLDVTRGRVPSMAWLKSWVDRLCFYKYNQFQLYIEHTFQFNGLSEVWRGADPLTSSDILELDSYCAARGIELVPSVSTFGHHYTALRTRQLRDLGEFPEDADRPFSLIERMTHHTLNITDERSYEFSTSLIDELMPLFRSRKFNICANETFDLGKGRSKQESAKRGVGAMYADFVERLCRHVDDRGHDVMVWADVALEHPEIIDTLPKNITWLNWQYEPNVDDGTTAALADAGATQMVCPAVWCWNALIPRIDDAWNNITRMARHGRAHDVSGMLVTDWGDFGHVNDPRMSVPGMIFGAQQSWNPDAELSEVDMLSRISTIEYGDHTGSVVGALRGASAKGGFSWSDLVTYLELDDGRGGCNTEIVRVMGCLEAYRNDLPQSGQARLADARVSMLRTLRDSILAGRELNGKLDDAAKDITQLLRVAGDPSSAAVWSLAIDGQRLLNRVGLALLAAHGVVRQDEAGIDAAKLADELECWTEQYSRLWHEVSRQSELARIQHVVWRAADVLRSI
glycan array binding signal (z-score) [1]: 0.631
glycan array binding signal (z-score) [2]: -0.955
glycan array binding signal (z-score) [3]: -0.239
glycan array binding signal (z-score) [4]: 0.418
glycan array binding signal (z-score) [5]: 1.01
glycan array binding signal (z-score) [6]: -0.123
glycan array binding signal (z-score) [7]: 0.442
glycan array binding signal (z-score) [8]: -0.711
glycan array binding signal (z-score) [9]: 0.741
glycan array binding signal (z-score) [10]: -0.235
glycan array binding signal (z-score) [11]: -1.31
glycan array binding signal (z-score) [12]: -0.428
glycan array binding signal (z-score) [13]: -1.23
glycan array binding signal (z-score) [14]: -0.37
glycan array binding signal (z-score) [15]: -0.395
glycan array binding signal (z-score) [16]: -1.19
glycan array binding signal (z-score) [17]: 0.081
glycan array binding signal (z-score) [18]: -0.596
glycan array binding signal (z-score) [19]: -1.04
glycan array binding signal (z-score) [20]: 0.299
glycan array binding signal (z-score) [21]: -0.439
glycan array binding signal (z-score) [22]: 1.85
glycan array binding signal (z-score) [23]: -0.845
glycan array binding signal (z-score) [24]: -0.476
glycan array binding signal (z-score) [25]: 0.019
glycan array binding signal (z-score) [26]: -0.528
glycan array binding signal (z-score) [27]: -0.464
glycan array binding signal (z-score) [28]: -0.814
glycan array binding signal (z-score) [29]: -0.537
glycan array binding signal (z-score) [30]: -0.246
glycan array binding signal (z-score) [31]: -0.407
glycan array binding signal (z-score) [32]: -0.374
glycan array binding signal (z-score) [33]: -0.963
glycan array binding signal (z-score) [34]: 0.167
glycan array binding signal (z-score) [35]: 0.709
glycan array binding signal (z-score) [36]: -0.641
glycan array binding signal (z-score) [37]: 0.661
glycan array binding signal (z-score) [38]: -0.358
glycan array binding signal (z-score) [39]: -0.012
glycan array binding signal (z-score) [40]: 0.218
glycan array binding signal (z-score) [41]: -0.853
glycan array binding signal (z-score) [42]: 0.29
glycan array binding signal (z-score) [43]: 0.989
glycan array binding signal (z-score) [44]: 0.146
glycan array binding signal (z-score) [45]: 0.518
